No constants are given. Whether binding was seen depends on the method and setting. Some binding calls cover weakened binding; strength is not graded here.

The target in the assay is T1, PACAP (UniProt P18509).
T1 sequence (peptide, looked up): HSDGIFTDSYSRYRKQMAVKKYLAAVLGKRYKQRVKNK
The experiment in a line: binding affinity screen of humanized variants (Table 5).

B1: anti-PACAP antibody 890C (antibody, human IgG4 S228P, kappa, V domains shown)
VH: EVQLVQSGAEVKKPGSSVKVSCKASGGTFSDVYMHWVRQAPGQGLEWMGLIYPIFADTRYAQKFQGRVTITADESTSTAYMELSSLRSEDTAVYYCAIDQDGSFAYWGQGTLVTVSS
VL: DIVMTQSPDSLAVSLGERATINCKSSQSLLDADGKTYLNWLQQKPGQPPKRLIYWASTRESGVPDRFSGSGSGTDFTLTISSLQAEDVAVYYCWQGTWFDLTFGGGTKVEIKR
Take B1: the binding entry was “binds”.

The record behind these values is patent EP4658683A1.
